Some entries share one result that the patent states for a list of compounds.
Tested on: X-MuLV
Assay: Detergent-mediated virus inactivation of X-MuLV in mAb1 harvest (pfu-based LRV)
Type: cell-based, Xenotropic Murine Leukemia Virus
Conditions: 60 minutes hold at 2-8° C., detergent at 1×CMC
Procedure: Three lipid-enveloped viruses X-MuLV, HSV-1 and A-MuLV (Amphotropic Murine Leukemia Virus) were investigated for VI in the cell culture fluid of a monoclonal antibody (mAb1) and a fusion protein (Fus1) for a range of detergents and detergent concentrations (FIG. 6). Protein concentration and buffer matrix were dictated by that in the harvest for the specific therapeutic and process. A temperature of 2-8° C. was used as a worst case for inactivation and incubation times of 0, 5 and 60 minutes were used to explore the kinetics of inactivation. Viral clearance was measured in units of Log Reduction Value (LRV) which was calculated from pfu (Plaque Forming Units) as follows
Virus inactivation studies were conducted for X-MuLV in mAb1 harvest, HSV-1 and A-MuLV in Fus1 harvest at 0, 5 and 60 minutes at 2-8° C. The inactivation studies for each condition were conducted in duplicates with results varying within 0.5 LRV. The lower of the two LRVS was plotted in FIG. 6 to remain conservative regarding the extent of inactivation. The error bars represent the assay variability.
The mechanism of detergent-mediated VI can share similarities with pH-mediated VI and is likely a characteristic of the detergent-protein-virus system under consideration. […]

## CCCCCCCCCCCC[N+](C)(C)[O-] [LDAO, Lauryldimethylamine Oxide]
  Log reduction value (LRV) of X-MuLV: less than 1.0 LRV

From patent US20250040546A1, “DETERGENT FOR VIRAL INACTIVATION” (Bristol-Myers Squibb Company, priority 2021, published 2025)
